B1: humanized single domain antibody AHP15485-VHH4 (Fc fusion)
chain: EVQLVESGGGLVQPGGSLRLSCAASGRSFSNFQMGWFRQAPGKEREFVAASGWSGGPTYYADSVKGRFTISTDNSKNTLYLQMNSLRAEDTAVYYCYEDRVLSGRPVRYWGQGTLVTVSS
notes: Humanized VHH expressed from pcDNA3.4-Fc (Human IgG1); not shown: human IgG1 Fc of the pcDNA3.4-Fc (Human IgG1) expression vector
B2: humanized single domain antibody AHP15662-VHH4 (Fc fusion)
chain: EVQLVESGGGLVQPGGSLRLSCAASGSISRFYAVGWYRQAPGKQRELVARISSGGSTYYADSVKGRFTISIDNSKNTLYLQMNSLRAEDTAVYYCNARNLWGQGTLVTVSS
notes: as for B1
B3: humanized single domain antibody AHP15773-VHH4 (Fc fusion)
chain: EVQLVESGGGLVQPGGSLRLSCAASGSDFSDSAMGWYRQAPGKQREFVAAIGAGGITTYADSVKGRFTISRDNAKNTLYLQMNSLRAEDTAVYFCNFAPGWYPPGYQYWGQGTLVTVSS
notes: as for B1

Amino acid sequences for entries named in this document (tags omitted). Residues count along the entry.
UniProt Q01973, residues 30-937: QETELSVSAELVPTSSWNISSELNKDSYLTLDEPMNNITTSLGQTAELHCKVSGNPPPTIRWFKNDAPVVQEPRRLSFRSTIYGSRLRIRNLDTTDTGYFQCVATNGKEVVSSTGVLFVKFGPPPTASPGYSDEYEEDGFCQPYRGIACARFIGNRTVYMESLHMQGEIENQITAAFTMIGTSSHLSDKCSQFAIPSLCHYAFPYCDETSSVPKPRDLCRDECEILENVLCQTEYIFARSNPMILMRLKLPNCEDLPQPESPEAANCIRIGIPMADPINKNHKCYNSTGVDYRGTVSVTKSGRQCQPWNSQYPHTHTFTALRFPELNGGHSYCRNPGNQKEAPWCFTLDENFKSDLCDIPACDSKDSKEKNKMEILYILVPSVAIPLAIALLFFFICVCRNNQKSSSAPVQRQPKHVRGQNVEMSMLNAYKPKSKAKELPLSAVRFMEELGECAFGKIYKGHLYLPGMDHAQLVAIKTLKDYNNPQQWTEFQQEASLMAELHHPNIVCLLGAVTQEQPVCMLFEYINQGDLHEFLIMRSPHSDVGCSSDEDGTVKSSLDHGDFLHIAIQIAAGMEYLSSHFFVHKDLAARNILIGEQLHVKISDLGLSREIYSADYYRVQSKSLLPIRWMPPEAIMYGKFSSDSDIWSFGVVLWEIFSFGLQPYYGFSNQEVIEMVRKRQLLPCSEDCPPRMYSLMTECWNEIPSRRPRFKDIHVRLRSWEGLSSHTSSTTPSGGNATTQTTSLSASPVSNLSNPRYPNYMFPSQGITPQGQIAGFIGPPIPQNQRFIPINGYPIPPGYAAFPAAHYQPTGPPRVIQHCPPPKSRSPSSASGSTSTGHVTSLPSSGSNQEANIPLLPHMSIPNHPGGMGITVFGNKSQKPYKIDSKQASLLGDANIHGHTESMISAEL
UniProt Q9Z139, residues 30-937: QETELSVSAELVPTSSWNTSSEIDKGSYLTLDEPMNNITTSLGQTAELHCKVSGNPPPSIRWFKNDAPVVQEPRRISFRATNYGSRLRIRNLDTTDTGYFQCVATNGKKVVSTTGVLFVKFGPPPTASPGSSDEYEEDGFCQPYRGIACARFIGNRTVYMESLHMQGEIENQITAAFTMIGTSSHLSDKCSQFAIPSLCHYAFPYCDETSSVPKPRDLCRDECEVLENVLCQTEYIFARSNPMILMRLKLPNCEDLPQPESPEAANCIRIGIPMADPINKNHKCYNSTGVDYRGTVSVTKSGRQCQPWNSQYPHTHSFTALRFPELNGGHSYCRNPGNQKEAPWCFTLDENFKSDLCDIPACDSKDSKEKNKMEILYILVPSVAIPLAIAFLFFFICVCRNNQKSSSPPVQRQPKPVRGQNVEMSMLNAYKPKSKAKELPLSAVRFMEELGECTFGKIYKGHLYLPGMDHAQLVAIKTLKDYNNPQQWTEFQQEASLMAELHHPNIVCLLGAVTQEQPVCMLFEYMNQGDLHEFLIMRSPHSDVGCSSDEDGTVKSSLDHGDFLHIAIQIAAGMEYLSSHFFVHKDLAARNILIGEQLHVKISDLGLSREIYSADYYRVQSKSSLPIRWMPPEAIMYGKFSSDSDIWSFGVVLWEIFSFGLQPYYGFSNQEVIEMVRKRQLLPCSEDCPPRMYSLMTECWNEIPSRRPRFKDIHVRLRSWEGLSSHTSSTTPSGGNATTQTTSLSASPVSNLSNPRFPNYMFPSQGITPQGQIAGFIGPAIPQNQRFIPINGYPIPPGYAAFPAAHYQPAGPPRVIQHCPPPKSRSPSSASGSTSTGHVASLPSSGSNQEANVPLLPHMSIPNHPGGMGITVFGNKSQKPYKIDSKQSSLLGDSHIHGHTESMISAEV

Results are given in words; binding and its absence hold for the method and conditions named. Some entries that bind do so weakly or less than the wild type.

For the first assay, the target named is human ROR1 expressed on CHO cells (CHO-K1/Human ROR1 stable cells) (human) (UniProt Q01973). Nature of the assay: flow cytometry, antibody at 10 ug/ml on CHO cells. For orientation: In flow cytometry, cells or beads pass a laser one at a time.
With B1, the binding result is listed as “binds”.

Consider B2, for which the binding entry is listed as “binds”.

With B3, the binding result is “binds”.

For the next assay, the target named is mouse ROR1 expressed on CHO cells (CHO-K1/Mouse ROR1 stable cells) (mouse) (UniProt Q9Z139). The experiment in a line: flow cytometry, antibody at 10 ug/ml on CHO cells.
For the molecule B1, the binding result is “binds”.

On to B2, for which the binding entry is “binds”.

For B3, the binding result was “binds”.

Values taken from patent publication US20260158064A1 (NANJING PROBIO BIOTECH, published 2026).
